Results as given in PubChem BioAssay (EPA / NIEHS).
Inconclusive results, whose numbers are uncertain, are shown with a selection of clear calls. Where the call is inconclusive, the potency comes from a doubtful curve fit. Activity calls are given as the source filed them. The calls were made as follows: active = hit-call score of the fitted dose curve at least 0.9, where 1 is the maximum; inconclusive = response in the unintended direction; inactive = score below 0.9.

Read-out: HMG-CoA synthase (HMGCS2), HMGCS2 (gene 3158)
Test: CLD_HMGCS2_48hr: CellzDirect (CLD) Gene Expression Assay for HMG-CoA synthase (HMGCS2) at 48 hours (AID 2283711)
Outline: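 mRNA induction read by qNPA chemiluminescence, 48 h after dosing. Cultured primary human liver cells (two donor preparations) received fresh compound daily over two days against 0.2% DMSO vehicle; morphology-based cytotoxicity noted alongside.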

SMILES	outcome	AC50
CCCCOC(=O)c1ccccc1C(=O)OCCCC	inactive	–
Nc1c(Cl)cc([N+](=O)[O-])cc1Cl	–	inconclusive: 3.97 µM
CCNP(=S)(OC)O/C(C)=C/C(=O)OC(C)C (stereo not given)	–	inconclusive: 5.98 µM
Oc1ccc(Cl)cc1Cc1ccccc1	inactive	–
CCC(C)(CC)c1cc(NC(=O)c2c(OC)cccc2OC)on1	–	inconclusive: 0.00613 µM
CC(C)N(C(=O)COc1nnc(C(F)(F)F)s1)c1ccc(F)cc1	–	inconclusive: 0.00104 µM
COP(=O)(OC)SCn1c(=O)oc2cc(Cl)cnc21	inactive	–
Cc1cc(C)nc(Nc2ccccc2)n1	inactive	–
CCCSP(=O)(OCC)SCCC	inactive	–
C=CCC1=C(C)C(OC(=O)C2C(C=C(C)C)C2(C)C)CC1=O (stereo not given)	inactive	–
COc1cnc(OC)n2nc(NS(=O)(=O)c3c(OCC(F)F)cccc3C(F)(F)F)nc12	–	inconclusive: 20 µM
CC(C)(C)C(=O)C(Oc1ccc(Cl)cc1)n1cncn1 (stereo not given)	–	inconclusive: 0.0009 µM
CCC(CC)Nc1c([N+](=O)[O-])cc(C)c(C)c1[N+](=O)[O-]	–	inconclusive: 20 µM
COc1nn(CSP(=S)(OC)OC)c(=O)s1	–	inconclusive: 1.74 µM
O=C(O)CCCOc1ccc(Cl)cc1Cl	inactive	–
COC(=O)C=C(C)OP(=O)(OC)OC	–	inconclusive: 20 µM
CN(C)c1nc(=O)n(C2CCCCC2)c(=O)n1C	inactive	–
CN(C)NC(=O)CCC(=O)O	–	inconclusive: 20 µM
COP(=S)(OC)Oc1ccc([N+](=O)[O-])c(C)c1	–	inconclusive: 20 µM
CCON=C(CC)C1=C(O)CC(c2c(C)cc(C)cc2C)CC1=O (stereo not given)	inactive	–

Compounds shown so far that have a carbonyl joined to an NH by a bond outside any ring, in the order listed:
SMILES	outcome	AC50
CCC(C)(CC)c1cc(NC(=O)c2c(OC)cccc2OC)on1	–	inconclusive: 0.00613 µM
CN(C)NC(=O)CCC(=O)O	–	inconclusive: 20 µM

More entries:

SMILES	outcome	AC50
COC(=O)NC(=S)Nc1ccccc1NC(=S)NC(=O)OC	inactive	–
CS(=O)(=O)c1cc(C(F)(F)F)ccc1C(=O)c1cnoc1C1CC1	inactive	–
O=S1OCC2C(CO1)C1(Cl)C(Cl)=C(Cl)C2(Cl)C1(Cl)Cl (stereo not given)	–	inconclusive: 3.97 µM
CO/N=C(/C1=NOCCO1)c1ccccc1Oc1ncnc(Oc2ccccc2Cl)c1F	–	inconclusive: 4.6 µM
CC1(C)CCC(=Cc2ccc(Cl)cc2)C1(O)Cn1cncn1 (stereo not given)	–	inconclusive: 20 µM
O=[N+]([O-])/N=C1\NCCN1Cc1ccc(Cl)nc1	–	inconclusive: 0.000421 µM
C=C(C)CN(CC)c1c([N+](=O)[O-])cc(C(F)(F)F)cc1[N+](=O)[O-]	–	inconclusive: 0.0004 µM
CCCCC(O)(Cn1cncn1)c1ccc(Cl)cc1Cl (stereo not given)	–	inconclusive: 20 µM
CC(Oc1ccc(Cl)cc1Cl)C(=O)O (stereo not given)	inactive	–
CC(C)Oc1cccc(NC(=O)c2ccccc2C(F)(F)F)c1	–	inconclusive: 20 µM
CCN(CC)C(=O)SCc1ccc(Cl)cc1	–	inconclusive: 6.25 µM
Oc1ccccc1-c1ccccc1	–	inconclusive: 0.000801 µM
CCOc1cc(Oc2ccc(C(F)(F)F)cc2Cl)ccc1[N+](=O)[O-]	–	inconclusive: 20 µM
CS(=O)(=O)c1ccc(C(=O)C2C(=O)CCCC2=O)c([N+](=O)[O-])c1	inactive	–
C#CCOS(=O)OC1CCCCC1Oc1ccc(C(C)(C)C)cc1 (stereo not given)	inactive	–
O=[N+]([O-])c1c(Cl)c(Cl)c(Cl)c(Cl)c1Cl	–	inconclusive: 2.08 µM
CCOP(=O)(OCC)Oc1nc(Cl)c(Cl)cc1Cl	inactive	–
CCNc1nc(Cl)nc(NCC)n1	–	inconclusive: 20 µM
C[N+]1(C)CCCCC1	inactive	–

System: not listed separately
Test: STM_H9_OrnCyssISnorm_ratio: Stemina devTOX quickPredict H9 human embryonic stem cell (hESC)-based Assay for Ornithine (ORN):Cystine (CYSS) Ratio (AID 2283714)
Outline: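 Ratio of internal-standard-normalized ornithine to cystine, measured by UPLC-HRMS in spent media from the last 24 h. H9 cells kept pluripotent, dosed 72 h with daily media and compound renewal; DMSO 0.1% serves as baseline.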

SMILES	AC50	outcome
Cc1cc(C)nc(Nc2ccccc2)n1	inconclusive: 6.5 µM	–
CS(=O)(=O)c1cc(C(F)(F)F)ccc1C(=O)c1cnoc1C1CC1	inconclusive: 9.92 µM	–
CS(=O)(=O)c1ccc(C(=O)C2C(=O)CCCC2=O)c([N+](=O)[O-])c1	–	inactive
C#CCOS(=O)OC1CCCCC1Oc1ccc(C(C)(C)C)cc1 (stereo not given)	active: 2.89 µM	–
CCNc1nc(Cl)nc(NCC)n1	–	inactive
C[N+]1(C)CCCCC1	inconclusive: 10 µM	–
